Data as given in patent publication US6632789B1, “Methods for modulating T cell responses by manipulating intracellular signal transduction” (The United States of America as represented by the …, priority 1994, dated 2003).
At least one structure is not confirmed: it was looked up by name or label, or the drawing left a doubt.

Assays:
[1] = test system: phosphatidylinositol 3-kinase; experiment: Production of PtdIns(3,4,5)P3 in Jurkat cells stimulated with CHO-B7-2, measured by HPLC; type: cell-based; conditions: wortmannin 0-100 μM, FIG. 3
[2] = test system: CD28-mediated calcium flux in Jurkat cells; experiment: Anti-CD28 antibody-induced calcium flux in Jurkat cells; type: cell-based; conditions: Jurkat cells stimulated with anti-CD28 antibody; FIG. 4
Method: In this example, the effect of pharmacological inhibitors on calcium flux in Jurkat cells induced by anti-CD28 antibodies was examined. The pharmacological inhibitors studied were wortmannin, which inhibits the activity of PI3K, and herbimycin A, which inhibits the activity of protein tyrosine kinases. Jurkat cells were stimulated with an anti-CD28 antibody, either in medium alone or in the presence of wortmannin or herbimycin A, and the mean calcium concentration (nM) in the cells was measured over several minutes following stimulation.

Compound: COC[C@H]1OC(=O)c2coc3c2[C@@]1(C)C1=C(C3=O)[C@@H]2CCC(=O)[C@@]2(C)C[C@H]1OC(C)=O [wortmannin]
- amount of PtdIns(3,4,5)P3 produced upon ligation of CD28 with B7-2 [1]: decreases the amount of D-3 phosphoinositides
- inhibition of CD28 antibody-induced calcium flux [2]: unable to inhibit
